# Laboratory results reported in PubChem BioAssay AID1347075 (National Center for Advancing Translational Sciences (NCATS), 2019).
# About 5,500 (1.4%) of roughly 400,000 compounds were called active. The inconclusive results got no clear call from the source; some entries with a clear call stand among them for comparison. The call rests on the fitted dose curve; in most records, active means well fitted cell-killing curve with a large enough effect; inconclusive means small, poorly fitted or top-dose-only effect, or effect the other way; inactive means flat fitted curve, though single readings scatter. A potency beside an inconclusive call is a rough fit, not a confirmed value.
# Assay: qHTS assay for MDR1-selective chemotherapeutics: Primary screen using the parental adenocarcinoma cell KB-3-1; further: nearly all actives have a fitted effect of over 60% in size
# Conditions: KB-3-1 viability, CellTiter-Glo ATP luminescence, 72 h; activity change, negative = cytotoxic: at 46.1 µM (top of the series)
# Outline: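 Cells are dispensed, compounds pinned in, plates held at 37 °C for 72 h, then CellTiter-Glo is added and luminescence read after 10 minutes. Cell line: parental KB-3-1 in phenol-red-free DMEM, 10% FBS.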
# On the % scale 0 is the no-effect control and ±100 the full control effect; potency means the concentration at half of the fitted maximal effect.
SMILES,Potency,"activity change, negative = cytotoxic"
C/C(=N\Nc1nc2ccccc2[nH]1)c1cc2ccccc2o1,"inconclusive: 5.8 µM [cytotoxic, partial curve]",
CCc1nn(CC(=O)N2CCN(C)CC2)c(=O)c2cccn12,"inconclusive: 9.2 µM [rising, partial curve, poor fit]",
C=C1C(=O)[C@]23C[C@H]1CCC2[C@@]1(C)C(C[C@@H]3O)[C@](C)(C(=O)OC)CC[C@@H]1O (some centres undefined),active: 13 µM,
CCOC(=O)CC1(C)Oc2cc(Cl)ccc2N1S(=O)(=O)c1ccc(C)cc1 (centres undefined),active: 18.4 µM,
CC1CCCN(S(=O)(=O)c2ccc(C(=O)Nc3nnc(-c4ccncc4)o3)cc2)C1 (centres undefined),"inconclusive: 23.1 µM [cytotoxic, single point]",
COc1cc2c(cc1[N+](=O)[O-])-c1ccccc1C2,"inconclusive: 5.17 µM [cytotoxic, partial curve, poor fit]",
COC(=O)c1ccccc1NC(=O)Cn1nnc(-c2ccc3c(c2)OCO3)n1,"inconclusive: 23.1 µM [rising, partial curve, poor fit]",
O=C(NCCc1ccc(Cl)cc1)c1ccc(S(=O)(=O)N2CCCC2)cc1,"inconclusive: 23.1 µM [rising, single point]",
c1ccc2c(N3CCOCC3)nc(-c3ccncc3)nc2c1,"inconclusive: 29.1 µM [cytotoxic, single point]",
CS/C(Nc1cc(Cl)ccc1Cl)=C(/C#N)C(=O)c1ccco1,"inconclusive: 7.31 µM [cytotoxic, partial curve, poor fit]",
CCCc1ccc(C(C)NC(=S)NCc2ccc(F)cc2)cc1 (centres undefined),"inconclusive: 18.4 µM [cytotoxic, partial curve, poor fit]",
CC[N+](C)(C(=O)O)/C(=C\c1ccccc1)c1ccnc2ccccc12 (centres undefined),"inconclusive: 6.51 µM [cytotoxic, full curve]",
CCCCOc1ccc(CSC(=N)N)cc1[N+](=O)[O-],"inconclusive: 18.4 µM [cytotoxic, single point]",
O=C(Nc1ccc(N2CCOCC2)c(S(=O)(=O)Nc2ccc(Cl)cc2)c1)c1ccc(=O)[nH]n1,,inactive: -0.602%
O=C1c2cccc3cc([N+](=O)[O-])cc(c23)C(=O)N1/N=C/c1ccc(O)cc1O,,inactive: -16.3%
CC1CCN(C(=O)CSc2nnc3c(n2)[nH]c2ccccc23)CC1,"inconclusive: 29.1 µM [cytotoxic, single point]",
COc1ccc(NC(=S)NC(=NS(=O)(=O)c2ccc(Cl)cc2)c2ccccc2)cc1,active: 20.6 µM,
COc1ccc(NC(=O)CN(C)CC(=O)NCc2ccc(C)cc2)cc1,,inactive: -1.23%
CCOC(=O)N1CCN(C(=O)c2ccc3c(c2)N(Cc2ccc(F)cc2)CCS3)CC1,"inconclusive: 20.6 µM [cytotoxic, single point]",
Cc1noc(C)c1NC(=O)N(C)C[C@H]1OCc2cnnn2CCCC(=O)N([C@H](C)CO)C[C@@H]1C,,inactive: 15.9%
O=C(N/N=C/c1cc(Br)c(Br)o1)c1cccnc1,"inconclusive: 29.1 µM [cytotoxic, single point]",
O=C(c1cccnc1)N1CCN(S(=O)(=O)c2ccc3ccccc3c2)CC1,active: 16.4 µM,
Cc1ccc(NC(=O)c2ccc(NCCc3ccccc3)c([N+](=O)[O-])c2)cc1F,"inconclusive: 29.1 µM [cytotoxic, single point]",

SMILES,Potency,"activity change, negative = cytotoxic"
CC(C)Nc1ncnc2c1ncn2[C@H]1CN(Cc2ccc(-c3ccccc3)cc2)C[C@@H](CO)O1,"inconclusive: 29.1 µM [cytotoxic, single point]",
NS(=O)(=O)c1ccc(N/N=C/c2cn(-c3ccccc3)nc2-c2cccs2)cc1,"inconclusive: 29.1 µM [cytotoxic, single point]",
Cn1c(CSCc2ccccc2Cl)nnc1SCC(=O)Nc1nccs1,,inactive: 0%
COC(=O)Cn1c(=O)c(C(=O)CCl)c(N)n(Cc2ccccc2)c1=O,active: 13 µM,
CCOC(=O)c1ccccc1NC(=O)c1ccc(Cl)c(S(=O)(=O)N2CCOCC2)c1,,inactive: 7.43%
Cc1cc(-n2[nH]c(C)c(C)c2=O)nc(-c2ccccc2O)n1,"inconclusive: 29.1 µM [cytotoxic, single point]",
CC(C)(C)[C@H]1COC(=O)CCC/C=C/C[C@H](CC(=O)NCCO)C(=O)N1,,inactive: 11.5%
Cc1ccc(-c2nc3ccc(Cl)cn3c2CC(C)(C)C)cc1,,inactive: -11%
CCCNc1c(NC(=O)c2ccc3c(c2)OCO3)c(=O)oc2ccccc12,,inactive: -3.56%
CCCCCc1ccc(C(=O)CCC(=O)OCC(=O)N(CC)c2c(N)n(Cc3ccccc3)c(=O)[nH]c2=O)cc1,,inactive: -0.102%
CC1CCN(c2ccc(NC(=O)c3ccc([N+](=O)[O-])o3)cc2)CC1,active: 5.17 µM,
CC(C(=O)O/N=C(\N)c1cccnc1)c1ccc([N+](=O)[O-])cc1 (centres undefined),,inactive: 8.86%
COc1cc2cc(-c3ccc(OC)c(OC)c3C)nc(N)c2cc1OC,"inconclusive: 0.411 µM [cytotoxic, full curve, poor fit]",
COc1cc(C(=O)N/N=C(\Cc2ncc[nH]2)c2ccccc2)cc(OC)c1OC,"inconclusive: 16.4 µM [cytotoxic, single point]",
Cc1ccc(-c2nn3c(C)nnc3s2)cc1NC(=O)c1ccc(-c2ccc(Cl)cc2Cl)o1,active: 20.6 µM,
O=[N+]([O-])c1cc(Br)c(O)c(/C=N/Nc2nc3ccccc3s2)c1,active: 23.1 µM,
CC1(C)C2CCC1(C)C(NC(=O)COC(=O)c1ccc(S(C)(=O)=O)c([N+](=O)[O-])c1)C2 (centres undefined),"inconclusive: 29.1 µM [cytotoxic, single point]",
COc1ccc2nc(SCC(=O)Nc3cc(C)on3)[nH]c2c1,"inconclusive: 29.1 µM [cytotoxic, single point]",
O=C1CN(S(=O)(=O)c2cccc(Cl)c2Cl)c2ccccc2N1,"inconclusive: 11.6 µM [rising, partial curve, poor fit]",
CC1CCN(c2nc3ccc(C(=O)N4CCN(Cc5ccc6c(c5)OCO6)CC4)cc3s2)CC1,"inconclusive: 25.9 µM [cytotoxic, single point]",
CCCn1c(=S)[nH]c2cc(C(=O)N3CCc4ccccc43)ccc2c1=O,"inconclusive: 23.1 µM [cytotoxic, single point]",
Cc1nc(NS(=O)(=O)c2ccccc2)sc1C(=O)NNS(=O)(=O)c1ccccc1,,inactive: 2.22%
O=C(Nc1nccs1)c1ccc(Cl)c(S(=O)(=O)N2CCCCC2)c1,"inconclusive: 14.6 µM [cytotoxic, single point]",

SMILES,Potency,"activity change, negative = cytotoxic"
COc1cccc(N2CCN(CC(=O)c3c[nH]c4ccc(OC)cc34)CC2C)c1 (centres undefined),"inconclusive: 23.1 µM [cytotoxic, partial curve, poor fit]",
COc1ccc(-c2noc(-c3ccccc3-c3ccccc3)n2)cc1,"inconclusive: 29.1 µM [cytotoxic, single point]",
CC1(Oc2ccccc2-c2ccno2)CCN(Cc2csc3ccccc23)C1 (centres undefined),"inconclusive: 29.1 µM [cytotoxic, single point]",
Cc1cccc(-c2noc(-c3ccc(N4CCN(C)CC4)c([N+](=O)[O-])c3)n2)c1,active: 18.4 µM,
COc1ccc(NC(=O)CSc2ccc(-c3ccccn3)nn2)cc1OC,"inconclusive: 18.4 µM [cytotoxic, single point]",
Cc1ccc(NC(=O)CCC(=O)N2CCC(c3ccccc3)=N2)cc1S(=O)(=O)N1CCCCC1,"inconclusive: 20.6 µM [cytotoxic, single point]",
CC1(C(=O)NS(=O)(=O)c2ccccc2C(F)(F)F)CCN1C(=O)c1cccc(F)c1 (centres undefined),,inactive: 0%
O=C(c1ccc(CS(=O)Cc2ccccc2Cl)o1)N1CCN(c2cccc(Cl)c2)CC1 (centres undefined),"inconclusive: 16.4 µM [cytotoxic, single point]",
COc1ccc(/C=C/C(=O)Nc2sc3c(c2C(N)=O)CCC(C)C3)cc1OC (centres undefined),"inconclusive: 2.91 µM [rising, full curve]",
COc1ccc(-n2nc3c(c2NC(=O)COc2ccccc2F)CS(=O)(=O)C3)cc1,,inactive: 7.37%
CCOc1ccc(NC(=O)CCS(=O)(=O)c2cccc3nonc23)cc1,,inactive: 1.1%
Cc1ccc(-n2ncc3c(N4CCN(C)CC4)ncnc32)cc1Cl,,inactive: 0.835%
COc1ccc(-c2cc(NC=O)c3ncc(-c4ccc(OC)c(OC)c4)n3c2)cc1,active: 1.64 µM,
COC(=O)c1c(NC(=O)c2cccs2)sc2c1CCC(C)C2 (centres undefined),,inactive: 16.4%
O=C(CSC1=NCCS1)Nc1ccc(F)cc1,,inconclusive: -5.71%
CCn1nc(C(=O)NCC(c2cccs2)N2CCOCC2)c2ccccc2c1=O (centres undefined),"inconclusive: 2.59 µM [rising, partial curve, poor fit]",
O=C(NCc1nnnn1-c1ccc(F)cc1)c1ccc([N+](=O)[O-])o1,active: 18.4 µM,
CC1(C)CCN2CCC(C)(C)c3c(O)ccc1c32,"inconclusive: 18.4 µM [cytotoxic, single point]",
Cc1cc(C)c2c(=O)cc(C(=O)Nc3sc4c(c3C(=O)NCc3cccnc3)CCCC4)oc2c1,,inactive: 14%
COc1ccccc1-c1noc2c1C(=O)N(Cc1cn(-c3ccccc3)nn1)CC2,"inconclusive: 29.1 µM [cytotoxic, single point]",
Cn1c(=O)[nH]c(=O)c2c1nc(CN1CCN(c3cccc(Cl)c3)CC1)n2CCN1CCOCC1,"inconclusive: 2.91 µM [rising, full curve]",
O=C(Nc1ccccn1)c1ccc(S(=O)(=O)c2ccc(Cl)cc2)cc1,"inconclusive: 11.6 µM [cytotoxic, partial curve]",
CC(C)(C)c1cc(CN2CCCC(O)C2)c(O)c(C(C)(C)C)c1 (centres undefined),"inconclusive: 32.6 µM [cytotoxic, single point]",

# Some of these compounds in order of formula weight, ascending.
SMILES,Potency,"activity change, negative = cytotoxic"
CCCCOc1ccc(CSC(=N)N)cc1[N+](=O)[O-],"inconclusive: 18.4 µM [cytotoxic, single point]",
CS/C(Nc1cc(Cl)ccc1Cl)=C(/C#N)C(=O)c1ccco1,"inconclusive: 7.31 µM [cytotoxic, partial curve, poor fit]",
COc1ccc(-n2nc3c(c2NC(=O)COc2ccccc2F)CS(=O)(=O)C3)cc1,,inactive: 7.37%
